Assay results published in patent publication US11167012B2, “Peptide inhibition of CCR3-mediated diseases or conditions” (The Board of Trustees of the University of Illinois, priority 2015, dated 2021).
Part of at least one peptide drawing is inferred or uncertain, most often the ends. Where no end group is shown, it is not given here.

Biological target: T1, CCR3 (Homo sapiens, UniProt P51677)
T1 sequence (P51677 1-355): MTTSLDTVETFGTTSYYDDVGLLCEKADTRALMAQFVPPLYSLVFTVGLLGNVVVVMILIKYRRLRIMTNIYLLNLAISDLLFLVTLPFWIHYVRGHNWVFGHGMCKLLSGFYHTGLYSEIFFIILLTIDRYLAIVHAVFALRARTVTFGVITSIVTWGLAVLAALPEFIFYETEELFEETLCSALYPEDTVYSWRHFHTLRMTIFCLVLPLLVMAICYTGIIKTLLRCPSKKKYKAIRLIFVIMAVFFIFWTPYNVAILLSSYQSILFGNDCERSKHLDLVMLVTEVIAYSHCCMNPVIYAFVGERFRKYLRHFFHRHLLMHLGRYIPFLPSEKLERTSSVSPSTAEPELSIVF
Experiment: Eotaxin-induced chemotaxis of 4DE4-CCR3 cells
Format: cell-based
Parameters: expressed in transfected cells; host or cells: 4DE4 mouse pre-B cell lymphoma line
Details: 80 nM eotaxin, 4 hours
Experimental: Cells were pretreated with, and then allowed to migrate towards, 80 nM eotaxin in the presence of the various CCR3 transmembrane peptides for 4 hours. Data are from three independent experiments. Error bars represent SEM.
To determine the effects of these peptides on CCR3-mediated chemotaxis, 4DE4-CCR3 cells were allowed to migrate to eotaxin/CCL11 in the presence of each peptide. 4DE4-CCR3, a mouse pre-B cell lymphoma line engineered to stably express human CCR3, has been used extensively to study CCR3 expression and CCR3-mediated chemotaxis.

Question: With LLNLAISDLLFLVTLPFWIHYDDDC [TM2] as the sequence, how does the “inhibition of eotaxin-induced chemotaxis of 4DE4-CCR3 cells” value read?
Answer: Its value is “inhibit 4DE4-CCR3 cell chemotaxis toward an eotaxin gradient in a dose-dependent manner”.
